Laboratory results: PubChem BioAssay AID504791 (Drosophila RNAi Screening Center, 2011)

- Purpose: 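Genes of the fly required for silencing by miRNA, siRNA or endo-siRNA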 (primary screen)
- Cell system: Drosophila S2-derived reporter cells
- Reagent: long dsRNA against Drosophila genes, about 150-250 ng dsRNA per well (siRNA assay); about 80-120 ng (miRNA assay)
- Time to read-out: about 5 days (siRNA assay); about 4 days (miRNA assay)
- Challenge: copper sulfate induction of reporters: 25 µM (siRNA assay); 200 mM stated (miRNA assay), 1-2 days before reading
- Measured: 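Dual luciferase assay: Renilla to firefly signal ratio in each well, scaled to the mean ratio of its plate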
- Hit rule: 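First-pass picks had plate-scaled ratios over 1.5 for the siRNA assay, over 1.6 for the miRNA assay, or under 0.6; two distinct dsRNAs had to score alike on retest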
In all, the deposit lists about 23,000 reagents; this is an unselected part of those that have a named target and a result. Of all reagents, 199 (0.86%) are marked active. 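Plate-scaled ratios behind the calls are not deposited; printed light signals are raw; many rows marked increased or decreased are still called inactive.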 Unmarked entries are inactive. A plus sign joins genes that one reagent is predicted to hit. The record does not give: the direction of the score.

no.	target gene	amplicon	miRNA reporter change	stable assay Renilla, run 1 (luminescence)	stable assay firefly, run 1 (luminescence)
1	Vha36-2 (GeneID 36328)	DRSC06294		7738	2.95e5
2	fdl (GeneID 250735)	DRSC07279		5435	2.80e5
3	CG13102 (GeneID 34228)	DRSC02202		7138	5.02e5
4	CG1523 (GeneID 43400)	DRSC15033		7931	4.20e5
5	CG9760 (GeneID 39388)	DRSC11101		7631	3.84e5
6	vanin-like (GeneID 31551)	DRSC17440		4743	3.17e5
7	mRpL17 (GeneID 38046)	DRSC08350		5118	3.91e5
8	Atg2 (GeneID 38344)	DRSC08273		10481	5.15e5
9	CG18417 (GeneID 38829)	DRSC10319		6134	3.67e5
10	CG3868 (GeneID 39580)	DRSC10380		9741	3.52e5
11	Gr64a (GeneID 117481)	DRSC21713		9580	5.32e5
12	DJ-1alpha (GeneID 36543)	DRSC07005		5615	3.45e5
13	HDAC11 (GeneID 326120)	DRSC14280		6819	3.39e5
14	Eig71Eb (GeneID 39701)	DRSC11149		7810	3.84e5
15	CG30060 (GeneID 246426)	DRSC05419		6155	3.81e5
16	CG34002 (GeneID 3885644)	DRSC09512		7471	5.23e5
17	CG34002 (GeneID 3885644)	DRSC11953		5634	5.38e5
18	Acbp5 (GeneID 39005)	DRSC10548		5651	4.05e5
19	GstE10 (GeneID 37105)	DRSC06671		7398	3.75e5
20	CG14453 (GeneID 40484)	DRSC11710		4788	3.82e5
21	CG1542 (GeneID 43691)	DRSC15035		8573	4.99e5
22	CG31709 (GeneID 261620)	DRSC01081		4874	3.92e5
23	shps (GeneID 42892)	DRSC14614		7188	3.02e5
24	daw (GeneID 33474)	DRSC00479		11819	5.18e5
25	Ipp (GeneID 41701)	DRSC16718		6439	3.46e5
26	CheB42c (GeneID 2768715)	DRSC04972		6342	3.55e5
27	mRpL15 (GeneID 40261)	DRSC11771		7096	3.00e5
28	Hexo2 (GeneID 31808)	DRSC18671		5479	3.60e5
29	CG33474 (GeneID 2768725)	DRSC05218		5951	4.08e5
30	CG31249 (GeneID 42129)	DRSC16248		6979	4.40e5
31	puf (GeneID 42935)	DRSC15875		4983	2.43e5
32	puf (GeneID 42935)	DRSC23167		5226	4.47e5
33	Ctl1 (GeneID 38523)	DRSC08303		6523	4.78e5
34	CG30380 (GeneID 246579)	DRSC05069		4943	4.97e5
35	CG17177 (GeneID 39601)	DRSC10257		7389	5.13e5
36	Alh (GeneID 40850)	DRSC12447		4904	2.50e5
37	Alh (GeneID 40850)	DRSC12487		5830	3.32e5
38	Alh (GeneID 40850)	DRSC12488		7986	4.65e5
39	Ero1L (GeneID 38500)	DRSC08660		7581	3.79e5
40	CG32040 (GeneID 317835)	DRSC08981		4979	3.50e5
41	CG32040 (GeneID 317835)	DRSC22459		4120	3.68e5
42	CG17475 (GeneID 42069)	DRSC15238		8019	4.51e5

Records listed so far whose gene name starts with E or e (2):
target gene	amplicon	miRNA reporter change	stable assay Renilla, run 1 (luminescence)	stable assay firefly, run 1 (luminescence)
Eig71Eb (GeneID 39701)	DRSC11149		7810	3.84e5
Ero1L (GeneID 38500)	DRSC08660		7581	3.79e5

The list goes on:
no.	target gene	amplicon	miRNA reporter change	stable assay Renilla, run 1 (luminescence)	stable assay firefly, run 1 (luminescence)
43	Pat1 (GeneID 31593)	DRSC17750		8487	4.69e5
44	Rpn8 (GeneID 37894)	DRSC04624		5039	2.02e5
45	pzg (GeneID 40351)	DRSC11848		8802	4.07e5
46	Srp9 (GeneID 38883)	DRSC10973		6122	4.49e5
47	Vps45 (GeneID 41153)	DRSC16398		6950	3.73e5
48	gfzf (GeneID 40858)	DRSC12506		6990	4.64e5
49	gfzf (GeneID 40858)	DRSC21874		7695	6.48e5
50	Sce (GeneID 43327)	DRSC16825		8502	3.54e5
51	CG17187 (GeneID 41351)	DRSC15181		5758	3.71e5
52	atk (GeneID 40266)	DRSC11418		6572	3.81e5
53	atk (GeneID 40266)	DRSC11769		6983	4.34e5
54	SkpE (GeneID 32997)	DRSC19431		6442	3.92e5
55	COX4L (GeneID 35491)	DRSC04841		5480	3.13e5
56	Hsp70Bb + Hsp70Ba + Hsp70Bc + 1 more	DRSC21247	reporter ratio raised past the hit cutoff	5303	4.83e5
57	Hsp70Bb + Hsp70Ba + Hsp70Bc + 1 more	DRSC21248		6291	4.78e5
58	srl (GeneID 40562)	DRSC12340		6302	4.41e5
59	CG34054 (GeneID 3885601)	DRSC05277		5923	2.79e5
60	CG3107 (GeneID 35475)	DRSC04888		74857	9.65e5
61	GluRIID (GeneID 44483)	DRSC16723		9251	5.58e5
62	CG32695 (GeneID 31918)	DRSC17975		3087	3.05e5
63	DopEcR (GeneID 38539)	DRSC08529		8735	4.23e5
64	CG1105 (GeneID 40841)	DRSC12528		8135	3.71e5
65	Lrp4 (GeneID 32552)	DRSC20118		8093	4.68e5
66	CG10137 (GeneID 35241)	DRSC02014		33413	1.30e6
67	CG10137 (GeneID 35241)	DRSC02015		7470	3.57e5
68	RpLP0 (GeneID 40451)	DRSC11878		6767	3.46e5
69	RpLP0 (GeneID 40451)	DRSC22110	reporter ratio raised past the hit cutoff	8919	4.26e5
70	CG10866 (GeneID 38461)	DRSC08171		5664	3.79e5
71	Zwilch (GeneID 59247)	DRSC15376		6343	3.31e5
72	CG32440 (GeneID 318030)	DRSC11480		5771	4.57e5
73	CG14717 (GeneID 41412)	DRSC14940		6815	3.63e5
74	Acyp (GeneID 34807)	DRSC01861		8866	3.91e5
75	CG16837 (GeneID 37904)	DRSC04283		7402	4.63e5
76	CG33292 (retired record) (GeneID 2768953)	DRSC22923		4108	3.60e5
77	Bcat (GeneID 32297)	DRSC19756		4731	3.51e5
78	Trm7-32 (GeneID 42056)	DRSC15741		8537	2.51e5
79	Cul6 (GeneID 39474)	DRSC09830		8553	4.29e5
80	Kap-alpha3 (GeneID 41158)	DRSC16976		6504	3.40e5
81	CG14418 (GeneID 31275)	DRSC18637		5507	3.06e5
82	CG14418 (GeneID 31275)	DRSC23051		6110	4.13e5
83	Ttc19 (GeneID 35172)	DRSC02474		7635	4.69e5
